In patent US20200369776A1:
These are yes or no findings as the source states them, for the method shown.

Assays:
CD120a = assay: condition: 100 nM (Example 5; not printed on the sheet); flow cytometry, transfected HEK293F cells, APC: Ag-Ab Binding against FITC: Antigen display
CD95 = assay: as above

Binder	binding (CD120a)	binding (CD95)
AG10059 (antibody, human IgG4 S228P, kappa, V domains shown) VH: EVQLVESGGGLVQPGGSLRLSCAASGYSITSGHYWAWIRQAPGKGLEWVSSISGYGSTTYYADSVKGRFTISRDNSKNTLYLQLNSLRAEDTAVYYCARGGSDAVLGDWFAYWGQGTLVTVSS VL: DIQLTQSPSSLSASVGDRVTITCRASQGIGSFLAWYQQKPGKAPKLLIYDASNLETGVPSRFSGSGSGTDFTLTISSLQPEDFATYYCQQGYYLWTFGQGTKVEIKR	no binding	no binding
AG10058 (antibody, human IgG4 S228P, kappa, V domains shown) VH: EVQLVESGGGLVQPGGSLRLSCAASGFSLSTSGVGVGWIRQAPGKGLEWLALIDWDDDKYYSPSLKSRLTISRDNSKNTLYLQLNSLRAEDTAVYYCARGGSDTVLGDWFAYWGQGTLVTVSS VL: DIQLTQSPSSLSASVGDRVTITCRASQSVSPYLAWYQQKPGKAPKLLIYDASSLESGVPSRFSGSGSGTDFTLTISSLQPEDFATYYCQQGYSLWTFGQGTKVEIKR	no binding	no binding
